Source: patent US10300176B2, “Catheter lock solution formulations” (Medline Industries, Inc., priority 2013, dated 2019)
Some entries share one result that the patent states for a list of compounds.

Test: break through pressure or vacuum level after exhaustive drying of lock formulations in simulated silicone catheter tubing
Assay type: physicochemical
Settings: excipient at 2% by weight in 30% w/v ethanol, 4% w/w tri-sodium citrate; pressure and vacuum
From the text: FIG. 1 is a view of a sphygmomanometer 10 connected to a syringe 12. The sphygmomanometer 10 includes a gauge 14 with a visual display 16 to measure the pressure or vacuum level. The sphygmomanometer 10 and the syringe 12 were used to measure the break through pressure or vacuum level.
Long silicone rubber commercial catheter extension tubing segments spliced together, or a single small bore with a 1.5 mm inner diameter clear, and very soft laboratory silicone rubber tubing of about 15 inch in length were used for evaluation. Formulations of 30% weight per volume (w/v) ethanol and 4% weight per weight (w/w) tri-sodium citrate with candidate biocompatible excipients were prepared and charged into the lumens of simulated catheter tubings and capped with solid plugs. The samples were first dried near a de-humidifier for about 24 hours to allow evaporation of most ethanol before being placed into a clear polycarbonate drying column connected in series with a large Drierite® desiccant column. The columns were also fitted with a gas flow meter and a diaphragm gas pump to provide closed loop gas circulation at about 4 liter per minute (min-1). […] Both the pressure (+) or vacuum (−) levels to cause the liquid or solid plug movement were measured when subjected to actuation movements from a small air filled syringe 12 connected to a sphygmomanometer 10. […]

Compound: OCC(O)CO [glycerol]
- Pbreak-through (break through pressure or vacuum level): less than 10 mmHg
